Measured values taken from US6399606B1, “Neuroprotective agents and methods related thereto” (Nippon Kayaku Co., Ltd., priority 1999, dated 2002).
Some of these results come from one statement about several compounds together.

Assays:
[1] = system: Differentiated PC12 (rat pheochromocytoma) cells; test: PC12 cell protection against taxol assay (LDH release); type: cell-based; details: 10 μM compound, 19 h pre-treatment, taxol 0.24 mM, LDH 72 hours after taxol, 100% = 30 mM NK5805
Neonatal rat SCG neurons = test: Rat superior cervical ganglion cell protection against taxol assay (LDH release); type: cell-based; details: 10 μM compound, 1 mM taxol after 36 hours, LDH 72 hours after taxol, 100% = 30 mM NK5805

SMILES | protection level (% survival by LDH release, relative to 30 mM NK5805) [1] | protection level (% survival by LDH release, relative to 30 mM NK5805) (Neonatal rat SCG neurons)
CCN(CCSCC(CC(=O)OC)C(=O)c1cccnc1)Cc1ccccc1 (stereo not drawn) [compound 8] | at least 50% | at least 50%
COC(=O)[C@@H](N)CSCC(CC(=O)O)C(=O)c1cccnc1 (stereo partly drawn) [compound 32] | at least 50% | at least 50%
COC(=O)CC(CSC[C@H](NC(C)=O)C(=O)OC)C(=O)c1cccnc1 (stereo partly drawn) [compound 60] | at least 50% | at least 50%
COC(=O)CC(CSCCNC(C)=O)C(=O)c1cccnc1 (stereo not drawn) [compound 61] | at least 50% | at least 50%
COC(=O)[C@H](CSCC(CC(=O)O)C(=O)c1cccnc1)NC(=O)c1cccc(C(F)(F)F)c1 (stereo partly drawn) [compound 74] | at least 50% | at least 50%
COC(=O)[C@H](CSCC(CC(=O)O)C(=O)c1cccnc1)NC(=O)OCc1ccccc1 (stereo partly drawn) [compound 129] | at least 50% | at least 50%
CCCNC(=O)N[C@@H](CSCC(CC(=O)O)C(=O)c1cccnc1)C(=O)OC (stereo partly drawn) [compound 132] | at least 50% | at least 50%
CCCCCNC(=O)N[C@@H](CSCC(CC(=O)O)C(=O)c1cccnc1)C(=O)OC (stereo partly drawn) [compound 134] | – | at least 50%
COC(=O)[C@H](CSCC(CC(=O)O)C(=O)c1cccnc1)NC(=O)NC(C)C (stereo partly drawn) [compound 135] | – | at least 50%
COC(=O)[C@H](CSCC(CC(=O)O)C(=O)c1cccnc1)NC(=O)NC(=O)c1ccccc1 (stereo partly drawn) [compound 139] | – | at least 50%
COC(=O)[C@H](CSCC(CC(=O)O)C(=O)c1cccnc1)NC(=O)NC1CCCCC1 (stereo partly drawn) [compound 140] | at least 50% | at least 50%
COC(=O)[C@H](CSCC(CC(=O)O)C(=O)c1cccnc1)NC(=O)Oc1ccccc1 (stereo partly drawn) [compound 143] | – | at least 50%
COC(=O)[C@H](CSCC(CC(=O)O)C(=O)c1cccnc1)NC(=O)Oc1ccc(Cl)cc1 (stereo partly drawn) [compound 144] | – | at least 50%
COC(=O)[C@H](CSCC(CC(=O)O)C(=O)c1cccnc1)NC(=O)Oc1ccc(F)cc1 (stereo partly drawn) [compound 145] | – | at least 50%
COC(=O)[C@H](CSCC(CC(=O)O)C(=O)c1cccnc1)NC(=O)Oc1ccc(Br)cc1 (stereo partly drawn) [compound 146] | – | at least 50%
COC(=O)[C@H](CSCC(CC(=O)O)C(=O)c1cccnc1)NC(=O)Oc1ccc(C)cc1 (stereo partly drawn) [compound 148] | – | at least 50%
CCCOC(=O)N[C@@H](CSCC(CC(=O)O)C(=O)c1cccnc1)C(=O)OC (stereo partly drawn) [compound 152] | – | at least 50%
COC(=O)[C@H](CSCC(CC(=O)O)C(=O)c1cccnc1)NC(=O)OCC(C)C (stereo partly drawn) [compound 153] | – | at least 50%
COC(=O)[C@H](CSCC(CC(=O)O)C(=O)c1cccnc1)NC(=O)OCC(Cl)(Cl)Cl (stereo partly drawn) [compound 159] | – | at least 50%
COC(=O)[C@H](CSCC(CC(=O)O)C(=O)c1cccnc1)NC(=O)NS(=O)(=O)c1ccccc1C (stereo partly drawn) [compound 162] | – | at least 50%
COC(=O)[C@H](CSCC(CC(=O)OCCc1c[nH]c2ccccc12)C(=O)c1cccnc1)NC(C)=O (stereo partly drawn) [compound 163] | – | at least 50%
CCOC(=O)CC(CSC[C@H](NC(=O)c1cc(C(F)(F)F)cc(C(F)(F)F)c1)C(=O)OC)C(=O)c1cccnc1 (stereo partly drawn) [compound 168] | – | at least 50%
COC(=O)CC(CSC[C@H](NC(=O)c1cc(C(F)(F)F)cc(C(F)(F)F)c1)C(=O)OC)C(=O)c1cccnc1 (stereo partly drawn) [compound 169] | at least 50% | at least 50%
CCCCCNC(=O)N[C@@H](CSCC(CC(=O)OC)C(=O)c1cccnc1)C(=O)OC (stereo partly drawn) [compound 175] | at least 50% | at least 50%
CCCCOC(=O)CC(CSCCNC(C)=O)C(=O)c1cccnc1 (stereo not drawn) [compound 187] | at least 50% | at least 50%
CC(=O)NCCSCC(CC(=O)N(C)C)C(=O)c1cccnc1 (stereo not drawn) [compound 188] | at least 50% | at least 50%

SMILES | protection level (% survival by LDH release, relative to 30 mM NK5805) [1] | protection level (% survival by LDH release, relative to 30 mM NK5805) (Neonatal rat SCG neurons)
CC(=O)NCCSCC(CC(=O)N1CCCCC1)C(=O)c1cccnc1 (stereo not drawn) [compound 189] | at least 50% | at least 50%
CC(=O)NCCSCC(CC(=O)N1CCCC1)C(=O)c1cccnc1 (stereo not drawn) [compound 194] | – | at least 50%
COC(=O)C(CSCC(CC(=O)OC1CCc2ccccc21)C(=O)c1cccnc1)NC(C)=O (stereo not drawn) [compound 196] | at least 50% | at least 50%
COC(=O)C(CSCC(CC(=O)OCCCc1cccnc1)C(=O)c1cccnc1)NC(C)=O (stereo not drawn) [compound 197] | – | at least 50%
COC(=O)C(CSCC(CC(=O)N1CCCC1)C(=O)c1cccnc1)NC(C)=O (stereo not drawn) [compound 206] | at least 50% | at least 50%
CC(=O)NCCSCC(CC(=O)N1CCOCC1)C(=O)c1cccnc1 (stereo not drawn) [compound 218] | at least 50% | at least 50%
CCOC(=O)CCNC(=O)NC(CSCC(CC(=O)OC)C(=O)c1cccnc1)C(=O)OC (stereo not drawn) [compound 223] | at least 50% | at least 50%
C#CCOC(=O)NC(CSCC(CC(=O)OC)C(=O)c1cccnc1)C(=O)OC (stereo not drawn) [compound 226] | at least 50% | at least 50%
CC(=O)N[C@@H](CSCC(CC(=O)N(C)C)C(=O)c1cccnc1)C(=O)N(C)C (stereo partly drawn) [compound 258] | – | at least 50%
CC(=O)N[C@@H](CSCC(CC(=O)N1CCCC1)C(=O)c1cccnc1)C(=O)N1CCCC1 (stereo partly drawn) [compound 259] | at least 50% | at least 50%
CC(=O)N(CCSCC(CC(=O)N(C)C)C(=O)c1cccnc1)C1CCCCC1 (stereo not drawn) [compound 263] | at least 50% | at least 50%
CC(=O)NC(CSCC(CC(=O)N(C)C)C(=O)c1cccnc1)C(=O)O (stereo not drawn) [compound 356] | – | at least 50%
CCOc1ccc(NC(=O)NCCSCC(CC(=O)N2CCCCC2)C(=O)c2cccnc2)cc1 (stereo not drawn) [compound 370] | at least 50% | at least 50%
CC(=O)NCCSCC(CC(=O)Nc1ncccn1)C(=O)c1cccnc1 (stereo not drawn) [compound 378] | at least 50% | at least 50%
CC(=O)NC(CSCC(CC(=O)N(C)C)C(=O)c1cccnc1)C(=O)N1CCC1 (stereo not drawn) [compound 379] | at least 50% | at least 50%
CC(=O)NC(CSCC(CC(=O)N(C)C)C(=O)c1cccnc1)C(=O)N1CCCC1 (stereo not drawn) [compound 380] | at least 50% | at least 50%
CCCNC(=O)NC(CSCC(CC(=O)C(C)C)C(=O)c1cccnc1)C(=O)OCC (stereo not drawn) [compound 407] | – | at least 50%
CCCNC(=O)NC(CSCC(CC(=O)N1CCOCC1)C(=O)c1cccnc1)C(=O)OCC (stereo not drawn) [compound 410] | – | at least 50%
CCOC(=O)C(CSCC(CC(=O)C(C)C)C(=O)c1cccnc1)NC(=O)NC1CCCCC1 (stereo not drawn) [compound 413] | – | at least 50%
CCOC(=O)C(CSCC(CC(=O)N1CCOCC1)C(=O)c1cccnc1)NC(=O)NC1CCCCC1 (stereo not drawn) [compound 416] | – | at least 50%
CCN(CC)CCN(C)C(=O)C(CSCC(CC(=O)N(C)C)C(=O)c1cccnc1)NC(C)=O (stereo not drawn) [compound 438] | – | at least 50%
CC(=O)N[C@@H](CSCC(CC(=O)N(C)C)C(=O)c1cccnc1)C(=O)N(C)CCCN(C)C (stereo partly drawn) [compound 439] | – | at least 50%
CC(=O)N[C@@H](CSCC(CC(=O)N(C)C)C(=O)c1cccnc1)C(=O)N1CCN(C)CC1 (stereo partly drawn) [compound 440] | – | at least 50%
CC(=O)N[C@@H](CSCC(CC(=O)N(C)C)C(=O)c1cccnc1)C(=O)N1CCC(N2CCCC2)CC1 (stereo partly drawn) [compound 441] | – | at least 50%
CC(=O)N[C@@H](CSCC(CC(=O)N(C)C)C(=O)c1cccnc1)C(=O)NCCCN1CCOCC1 (stereo partly drawn) [compound 442] | – | at least 50%
